From patent US10227610B2, “Methods and compositions for enhancing nuclease-mediated gene disruption” (SANGAMO THERAPEUTICS, INC., priority 2013, dated 2019)
Some results were stated once for a whole list of compounds, not compound by compound. For at least one compound, name, drawing or mass did not settle the structure.

System: Hepa 1-6 cells
Assay: Mutagenic repair (% indels) after albumin-specific ZFN, Surveyor/CelI assay and clone sequencing
Type: cell-based
Conditions: Day 3, Surveyor/CelI; NU7441 3-5 μM, Olaparib 5 μM; vs DMSO
Method: In particular, the inhibitors Olaparib (PARP1-inhibitor) and NU7441 (DNA-PKcs inhibitor) were added 3 hours after mRNA delivery at concentration of 5 μM and 3-5 μM respectively. As a control, the ATM inhibitor KU55933 was added at a concentration of 10 μM (ATM has no direct role in DSB repair but is related to DNA-PKcs). After 15 hours, fresh inhibitors were added to the medium to counteract the decay of the inhibitors in the cell culture medium.
After a further 54 hours, cells were harvested and genomic DNA was prepared for Day 3 analysis by Surveyor™/CelI assay and DNA sequencing. For DNA sequencing the genomic target region of the ZFN was amplified by PCR, topo-cloned and 96 individual clones were sequenced. The sequences were analyzed and the results used to divide the clones into groups by the genome type (e.g. wild type genomes, those with insertions and/or deletions, and those with other modifications). At Day 3 harvest about a third of the cells were re-seeded in fresh medium without inhibitors and were grown until day 10 when they were harvested and analyzed by Surveyor™/CelI assay.

## O=c1cc(N2CCOCC2)oc2c(-c3cccc4c3sc3ccccc34)cccc12 [NU7441]
  increase of mutagenic repair (% indels): 2-3 fold
